Source: PMC10582465

By UniProt entry, the sequences of proteins in these tests, tags left out. Where a name states a change or a piece, a line headed by the entry shows the natural chain unless it says otherwise.
UniProt Q9BRQ8: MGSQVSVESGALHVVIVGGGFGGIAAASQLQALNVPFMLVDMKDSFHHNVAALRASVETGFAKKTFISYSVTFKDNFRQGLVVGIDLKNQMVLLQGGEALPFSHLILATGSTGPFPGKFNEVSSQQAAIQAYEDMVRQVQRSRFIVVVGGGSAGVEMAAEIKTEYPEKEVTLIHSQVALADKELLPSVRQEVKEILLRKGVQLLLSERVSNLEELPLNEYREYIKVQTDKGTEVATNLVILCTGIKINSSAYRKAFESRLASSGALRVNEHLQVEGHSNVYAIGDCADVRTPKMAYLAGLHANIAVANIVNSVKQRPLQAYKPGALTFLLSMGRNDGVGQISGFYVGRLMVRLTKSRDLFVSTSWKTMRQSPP
UniProt P19474: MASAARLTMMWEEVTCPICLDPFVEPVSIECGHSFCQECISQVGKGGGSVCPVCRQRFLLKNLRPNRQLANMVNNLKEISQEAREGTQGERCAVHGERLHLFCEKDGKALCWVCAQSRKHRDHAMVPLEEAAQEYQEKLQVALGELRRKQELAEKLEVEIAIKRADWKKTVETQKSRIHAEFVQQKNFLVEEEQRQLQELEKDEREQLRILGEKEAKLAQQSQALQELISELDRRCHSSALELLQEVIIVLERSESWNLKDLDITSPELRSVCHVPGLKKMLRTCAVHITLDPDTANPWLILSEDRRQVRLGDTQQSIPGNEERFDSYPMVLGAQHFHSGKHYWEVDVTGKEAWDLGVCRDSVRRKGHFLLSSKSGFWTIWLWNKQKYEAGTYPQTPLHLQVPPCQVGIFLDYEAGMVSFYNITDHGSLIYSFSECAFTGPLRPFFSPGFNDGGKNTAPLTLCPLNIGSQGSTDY

Molecular target: GST-FSP1 (human) (UniProt Q9BRQ8)
Assay: pull-down; GST, GST-FSP1 or GST-TRIM21 from bacteria on GST magnetic beads, incubated with cell lysate at 4 °C overnight; 50 mM Tris-HCl pH 7.4, 0.5% NP-40, 1 mM EDTA, 150 mM NaCl; immunoblot; only the target purified

binding: binds
Substance: TRIM21 of the cell lysate used in the GST pull-down (from UniProt P19474 1-475)

Results are given in words; binding and its absence hold for the method and conditions named. Binding seen in cells or lysates may run through a third protein. Binding can be weak; no strength is given.
